As a reminder, the half-life is the time in which the quantity being followed falls by half.

Series [1] can be described thus: in vitro. The conditions noted are these: male, Sprague-Dawley, rat, hepatocytes, hepatocyte (rat) T1/2 (min), 1 μM test compound.
The test system of series [2] is Mouse small mesenteric artery (NPR-C KO). Conditions: vasorelaxation, NPR-C knockout.
Series [3] concerns Rat small mesenteric artery.

SMILES strings stand for the structures. Bounds are passed on as bounds.

Compound `CC(=O)Nc1ccc(Nc2ncnc(N[C@@H](CC(C)C)C(=O)OC(C)(C)C)n2)cc1` [Compound 26, tert-Butyl (4-((4-Acetamidophenyl)amino)-1,3,5-triazin-2-yl)-L-leucinate] returned a half-life at 1 μM in series [1] of 12 min.
With `CC(=O)Nc1ccc(Nc2ncnc(N[C@@H](Cc3ccccc3)C(=O)OC(C)(C)C)n2)cc1` [Compound 41, tert-Butyl (4-((4-Acetamidophenyl)amino)-1,3,5-triazin-2-yl)-L-phenylalaninate], in series [2], the “Mouse small mesenteric artery NPR-C KO EC50 ± SEM (μM)” value is listed as “maintained their activity”. Moreover, in series [1], the half-life at 1 μM is below 10 min. Further, the “Rat small mesenteric artery EC50+NPR-C inhibitor (M372049) ± SEM (μM)” value in series [3] was “maintained their activity”.

The values are drawn from publication PMC9014859 (Journal of Medicinal Chemistry, 2022).
